Where a name gives a salt, the structure may show the parent alone. ± gives the standard deviation of the averaged measurements. This is one part of the list.
system: APPdp1-6 iPSC-derived neurons; assay: pThr231Tau/total Tau ratio Z-score vs DMSO vehicle wells; higher = more pThr231Tau relative to total Tau; details: 5 µM; treatment time 5 days

Compound	pThr231Tau/total Tau ratio Z-score
CC(=O)Oc1cccc2c1C(=O)c1c(OC(C)=O)cc(C(=O)O)cc1C2=O [Prestw-1167]	0.965 ± 2.9
C=C1C[C@H]2[C@@H]3C=C(C)C4=CC(=O)CC[C@]4(C)[C@H]3CC[C@]2(C)[C@@]1(OC(C)=O)C(C)=O [Prestw-1435]	-0.271 ± 1.4
N[C@H]1C(O)O[C@H](CO)[C@@H](O)[C@@H]1O (some centres not stated) [GLUCOSAMINE HYDROCHLORIDE    Therap cat:  Antiarthritic]	-0.236 ± 0.42
OCCN1CCN(CCCN2c3ccccc3Sc3ccc(Cl)cc32)CC1 [Prestw-125]	-2.44 ± 0.99
CN(C)CCc1c[nH]c2ccc(Cn3cncn3)cc12 [RIZATRIPTAN BENZOATE, 5HT-1B/1D agonist, antimigraine]	-1.3 ± 0.24
Nc1ccc(S(=O)(=O)c2ccc(N)cc2)cc1 [Prestw-35]	-0.0475 ± 0.99
OC[C@H]1O[C@@H](Oc2ccc(O)cc2)[C@H](O)[C@@H](O)[C@@H]1O [Prestw-1026]	-0.776 ± 1.2
CCCCC(=O)N(Cc1ccc(-c2ccccc2-c2nn[nH]n2)cc1)[C@H](C(=O)O)C(C)C [VALSARTAN, Angiotensin II inhibitor, antihypertensive]	0.341 ± 0.87
N=C(N)NCC1COC2(CCCCC2)O1 (configuration not stated) [Prestw-767]	0.478 ± 1.6
CC1(C)OC(=O)NC1=O [Prestw-829]	0.348 ± 1.7
Nc1ccc(C(=O)NCC(=O)O)cc1 [Prestw-895]	-0.167 ± 1.1
COc1ccc(NS(=O)(=O)c2ccc(N)cc2)nn1 [Prestw-724]	-1.11 ± 0.37
Cn1nnnc1SCC1=C(C(=O)O)N2C(=O)[C@@H](NC(=O)[C@H](O)c3ccccc3)[C@H]2SC1 [Prestw-747]	-1.33 ± 0.54
CCC[C@H](N[C@@H](C)C(=O)N1[C@H](C(=O)O)C[C@@H]2CCCC[C@@H]21)C(=O)OCC [Prestw-1101]	1.06 ± 0.87
CC(C)[C@H](N)C(=O)OCCOCn1cnc2c(=O)[nH]c(N)nc21 [Prestw-1505]	1.48 ± 1.3
CN(C)C(=N)N=C(N)N [Prestw-4]	0.2 ± 1
CO[C@@H]1[C@@H](OC(N)=O)[C@@H](O)[C@H](Oc2ccc3c(O)c(NC(=O)c4ccc(O)c(CC=C(C)C)c4)c(=O)oc3c2C)OC1(C)C [Prestw-834]	0.135 ± 1.8
CC(=O)Oc1cccc(O)c1	0.491 ± 0.014
CCN1CCN(C(=O)N[C@@H](C(=O)N[C@@H]2C(=O)N3[C@@H]2SC(C)(C)[C@@H]3C(=O)O)c2ccccc2)C(=O)C1=O [Prestw-755]	0.165 ± 0.99
CN(C)CCC[C@@]1(c2ccc(F)cc2)OCc2cc(C#N)ccc21 [Prestw-692]	-0.0616 ± 0.4
CN(C)CCC[C@@]1(c2ccc(F)cc2)OCc2cc(C#N)ccc21 [Prestw-1271]	-1.03 ± 0.41
CCCC(=O)Nc1ncnc2c1ncn2[C@@H]1O[C@@H]2COP(=O)(O)O[C@H]2[C@H]1OC(=O)CCC [BUCLADESINE    Therap cat: vasodilator]	0.484 ± 1.1
CCCC(=O)Nc1ncnc2c1ncn2[C@@H]1O[C@@H]2COP(=O)(O)O[C@H]2[C@H]1OC(=O)CCC [Prestw-813]	-1.15 ± 0.88
O=C(CNC(=O)c1ccc(Cl)cc1)NO [BENURESTAT, urease inhibitor]	1.12 ± 1.5
CN1CCCC(n2nc(Cc3ccc(Cl)cc3)c3ccccc3c2=O)CC1 (configuration not stated) [Prestw-1130]	0.823 ± 0.37
CN1CCCCC1CCN1c2ccccc2Sc2ccc([S+](C)[O-])cc21 (configuration not stated) [Prestw-529]	0.987 ± 0.42

In another format: results already given
Compound,pThr231Tau/total Tau ratio Z-score
N=C(N)NCC1COC2(CCCCC2)O1 (configuration not stated) [Prestw-767],0.478 ± 1.6
CC1(C)OC(=O)NC1=O [Prestw-829],0.348 ± 1.7

Next part:

Compound	pThr231Tau/total Tau ratio Z-score
NC(=O)N/N=C/c1ccc([N+](=O)[O-])o1 [Prestw-492]	0.394 ± 1.1
CCOC(=O)OC(C)OC(=O)[C@@H]1N2C(=O)[C@@H](NC(=O)[C@H](N)c3ccccc3)[C@H]2SC1(C)C (some centres not stated) [Prestw-416]	-0.051 ± 1
CCOC(=O)[C@H](CCc1ccccc1)N[C@H]1CCc2ccccc2N(CC(=O)O)C1=O [Prestw-1129]	0.249 ± 1.4
COC1=C(OC)C(=O)C(CCCCCCCCCCO)=C(C)C1=O [Prestw-1288]	-1 ± 0.32
NCCCC[C@H](N[C@@H](CCc1ccccc1)C(=O)O)C(=O)N1CCC[C@H]1C(=O)O [Prestw-301]	-0.783 ± 1.3
O=C(Nc1cccc2c(=O)cc(-c3nnn[nH]3)oc12)c1ccc(OCCCCc2ccccc2)cc1 [Prestw-1317]	-1.15 ± 1.1
CC(C)(C)NC[C@H](O)COc1nsnc1N1CCOCC1 [Prestw-948]	-0.151 ± 1.4
C[C@]12CCC(=O)C=C1CC[C@@H]1[C@@H]2[C@@H](O)C[C@@]2(C)[C@H]1CC[C@]2(O)C(=O)COC(=O)CCC(=O)O [HYDROCORTISONE HEMISUCCINATE    Therap cat:  Glucocorticoid]	-1.31 ± 1.6
O=C(Cc1cccs1)N[C@@H]1C(=O)N2C(C(=O)[O-])=C(C[n+]3ccccc3)CS[C@H]12 [CEPHALORIDINE    Therap cat: antimicrobial]	0.745 ± 0.1
Cc1scc2c1N(C(=O)CN1CCN(C)CC1)c1ccccc1NC2=O [Prestw-303]	-0.847 ± 0.13
c1ccc(C2CN3CCSC3=N2)cc1 (configuration not stated) [Prestw-545]	0.231 ± 1.4
OC[C@H]1O[C@H]([S-])[C@H](O)[C@@H](O)[C@@H]1O.[Au+] [AUROTHIOGLUCOSE, antirheumatic]	-3.68 ± 0.68
CCCN[C@H]1CCc2nc(N)sc2C1 [Prestw-1316]	1.32 ± 0.92
Cc1cc(=O)oc2cc(O)ccc12 [Prestw-901]	-0.424 ± 0.2
CC(COc1ccccc1)N(CCCl)Cc1ccccc1 (configuration not stated) [Prestw-944]	-0.357 ± 0.46
CCCNC(C)C(=O)Nc1ccccc1C (configuration not stated) [Prestw-199]	-0.0608 ± 0.68
COc1ccc(CN(CCN(C)C)c2ccccn2)cc1 [Prestw-289]	0.374 ± 0.13
CC(=O)c1ccc(S(=O)(=O)NC(=O)NC2CCCCC2)cc1 [Prestw-55]	1.14 ± 0.99
NCCC[C@H](N)C(=O)O	0.236 ± 0.69
Clc1ccc(C(Cn2ccnc2)OCc2c(Cl)cccc2Cl)c(Cl)c1 (configuration not stated) [Prestw-127]	0.347 ± 1.1
NC(=O)N1c2ccccc2C=Cc2ccccc21 [Prestw-52]	0.301 ± 1
CN(C)CCN(Cc1cccs1)c1ccccn1 [Prestw-342]	-0.446 ± 1.5
COc1c(O[C@@H]2O[C@H](CO)[C@@H](O)[C@H](O)[C@H]2O)cc2c(c1OC)-c1ccc(SC)c(=O)cc1[C@@H](NC(C)=O)CC2 [Prestw-539]	-2.05 ± 0.46
O=C(Cn1ccnc1[N+](=O)[O-])NCCO [Prestw-649]	-0.463 ± 0.73
CC(=O)OCC(COC(C)=O)OC(C)=O [TRIACETIN    Therap cat: topical antifungal]	1.13 ± 0.3
CCCCCC(O)C=CC1C(O)CC(=O)C1CCCCCCC(=O)O (configuration not stated) [Prestw-1018]	-0.003 ± 1

Compound	pThr231Tau/total Tau ratio Z-score
O=C1CN2Cc3c(ccc(Cl)c3Cl)N=C2N1 [ANAGRELIDE HYDROCHLORIDE, antithrombotic]	-0.555 ± 0.098
Nc1nc(=S)c2ncn([C@@H]3O[C@H](CO)[C@@H](O)[C@H]3O)c2[nH]1 [Prestw-347]	0.106 ± 0.82
CC(C)NCC(O)COc1ccc(COCCOC(C)C)cc1 (configuration not stated) [Prestw-330]	0.269 ± 0.48
Nc1nc(=O)c2nc(CNc3ccc(C(=O)N[C@@H](CCC(=O)O)C(=O)O)cc3)cnc2[nH]1 [Prestw-627]	1.28 ± 0.8
CC(=O)N[C@@H](CC(C)C)C(=O)O [Prestw-896]	-0.44 ± 0.33
CC/C=C\C/C=C\C/C=C\C/C=C\C/C=C\CCCC(=O)OCC [OMEGA-3-ACID ESTERS (EPA shown), hypolipidemic]	0.245 ± 0.53
CC[C@H]1OC(=O)[C@H](C)[C@@H](O[C@H]2C[C@@](C)(OC)[C@@H](O)[C@H](C)O2)[C@H](C)[C@@H](O[C@@H]2O[C@H](C)C[C@H](N(C)C)[C@H]2O)[C@](C)(O)C[C@@H](C)/C(=N\OCOCCOC)[C@H](C)[C@@H](O)[C@]1(C)O [Prestw-854]	-0.281 ± 0.2
Nc1nc(F)nc2c1ncn2[C@@H]1O[C@H](CO)[C@@H](O)[C@@H]1O [Prestw-1483]	0.998 ± 0.67
CC1CS(=O)(=O)CCN1/N=C/c1ccc([N+](=O)[O-])o1 (configuration not stated) [Prestw-1024]	-0.801 ± 0.14
NC(=O)NC(=O)Cc1ccccc1 [PHENACEMIDE    Therap cat:  Anticonvulsant]	-1.09 ± 1.4
CN1CC2c3ccccc3Oc3ccc(Cl)cc3C2C1 (configuration not stated) [Prestw-1231]	-0.918 ± 0.97
CN1[C@@H](CC(=O)c2ccccc2)CCC[C@H]1C[C@H](O)c1ccccc1	-0.105 ± 2.1
OC[C@@H](O)[C@@H](O[C@@H]1O[C@H](CO)[C@H](O)[C@H](O)[C@H]1O)[C@H](O)[C@@H](O)CO	2.71 ± 3.2
c1ccc2[nH]c(-c3cscn3)nc2c1 [Prestw-524]	-0.795 ± 1.4
CCCCCCCN(CC)CCCC(O)c1ccc(NS(C)(=O)=O)cc1 (configuration not stated) [Prestw-1508]	0.0643 ± 0.3
COc1ccc(-c2cc(=O)c3c(O)cc(O[C@@H]4O[C@H](CO[C@@H]5O[C@@H](C)[C@H](O)[C@@H](O)[C@H]5O)[C@@H](O)[C@H](O)[C@H]4O)cc3o2)cc1O [Prestw-1503]	0.133 ± 0.25
CCOC(=O)C1=C[C@]2(CC)CCCN3CCc4c(n1c1ccccc41)[C@@H]32 [Prestw-268]	-1.75 ± 0.4
Cc1cccc(CN2CCN(C(c3ccccc3)c3ccc(Cl)cc3)CC2)c1 (configuration not stated) [Prestw-457]	-0.149 ± 0.76
O=C(O)CCC(=O)Nc1ccc(S(=O)(=O)Nc2nccs2)cc1 [Prestw-702]	0.703 ± 0.15
COc1cnc(NS(=O)(=O)c2ccc(N)cc2)nc1 [Prestw-769]	0.506 ± 1.3
CNCCC(Oc1ccccc1OC)c1ccccc1 (configuration not stated) [Prestw-910]	0.897 ± 0.51
COc1ccccc1O [Prestw-1268]	-1.19
CC(=O)OCC1=C(C(=O)O)N2C(=O)[C@@H](NC(=O)CSc3ccncc3)[C@H]2SC1	0.141 ± 2.2
CC(=O)N(CC(C)C(=O)O)c1c(I)cc(I)c(N)c1I (configuration not stated) [Prestw-838]	0.66 ± 0.54
CC(C)(S)C(N)C(=O)O (configuration not stated) [Prestw-1477]	-0.734 ± 0.49

Part of the list above, as labelled records:
NC(=O)NC(=O)Cc1ccccc1 [PHENACEMIDE    Therap cat:  Anticonvulsant]
  pThr231Tau/total Tau ratio Z-score: -1.09 ± 1.4
CNCCC(Oc1ccccc1OC)c1ccccc1 (configuration not stated) [Prestw-910]
  pThr231Tau/total Tau ratio Z-score: 0.897 ± 0.51
CC(=O)OCC1=C(C(=O)O)N2C(=O)[C@@H](NC(=O)CSc3ccncc3)[C@H]2SC1
  pThr231Tau/total Tau ratio Z-score: 0.141 ± 2.2
